{
  "sequences": {"note": "Amino acid sequences for entries named in this document (tags omitted). A change or cut given only in a name is not applied to a line headed by its entry.", "UniProt Q7Z401": "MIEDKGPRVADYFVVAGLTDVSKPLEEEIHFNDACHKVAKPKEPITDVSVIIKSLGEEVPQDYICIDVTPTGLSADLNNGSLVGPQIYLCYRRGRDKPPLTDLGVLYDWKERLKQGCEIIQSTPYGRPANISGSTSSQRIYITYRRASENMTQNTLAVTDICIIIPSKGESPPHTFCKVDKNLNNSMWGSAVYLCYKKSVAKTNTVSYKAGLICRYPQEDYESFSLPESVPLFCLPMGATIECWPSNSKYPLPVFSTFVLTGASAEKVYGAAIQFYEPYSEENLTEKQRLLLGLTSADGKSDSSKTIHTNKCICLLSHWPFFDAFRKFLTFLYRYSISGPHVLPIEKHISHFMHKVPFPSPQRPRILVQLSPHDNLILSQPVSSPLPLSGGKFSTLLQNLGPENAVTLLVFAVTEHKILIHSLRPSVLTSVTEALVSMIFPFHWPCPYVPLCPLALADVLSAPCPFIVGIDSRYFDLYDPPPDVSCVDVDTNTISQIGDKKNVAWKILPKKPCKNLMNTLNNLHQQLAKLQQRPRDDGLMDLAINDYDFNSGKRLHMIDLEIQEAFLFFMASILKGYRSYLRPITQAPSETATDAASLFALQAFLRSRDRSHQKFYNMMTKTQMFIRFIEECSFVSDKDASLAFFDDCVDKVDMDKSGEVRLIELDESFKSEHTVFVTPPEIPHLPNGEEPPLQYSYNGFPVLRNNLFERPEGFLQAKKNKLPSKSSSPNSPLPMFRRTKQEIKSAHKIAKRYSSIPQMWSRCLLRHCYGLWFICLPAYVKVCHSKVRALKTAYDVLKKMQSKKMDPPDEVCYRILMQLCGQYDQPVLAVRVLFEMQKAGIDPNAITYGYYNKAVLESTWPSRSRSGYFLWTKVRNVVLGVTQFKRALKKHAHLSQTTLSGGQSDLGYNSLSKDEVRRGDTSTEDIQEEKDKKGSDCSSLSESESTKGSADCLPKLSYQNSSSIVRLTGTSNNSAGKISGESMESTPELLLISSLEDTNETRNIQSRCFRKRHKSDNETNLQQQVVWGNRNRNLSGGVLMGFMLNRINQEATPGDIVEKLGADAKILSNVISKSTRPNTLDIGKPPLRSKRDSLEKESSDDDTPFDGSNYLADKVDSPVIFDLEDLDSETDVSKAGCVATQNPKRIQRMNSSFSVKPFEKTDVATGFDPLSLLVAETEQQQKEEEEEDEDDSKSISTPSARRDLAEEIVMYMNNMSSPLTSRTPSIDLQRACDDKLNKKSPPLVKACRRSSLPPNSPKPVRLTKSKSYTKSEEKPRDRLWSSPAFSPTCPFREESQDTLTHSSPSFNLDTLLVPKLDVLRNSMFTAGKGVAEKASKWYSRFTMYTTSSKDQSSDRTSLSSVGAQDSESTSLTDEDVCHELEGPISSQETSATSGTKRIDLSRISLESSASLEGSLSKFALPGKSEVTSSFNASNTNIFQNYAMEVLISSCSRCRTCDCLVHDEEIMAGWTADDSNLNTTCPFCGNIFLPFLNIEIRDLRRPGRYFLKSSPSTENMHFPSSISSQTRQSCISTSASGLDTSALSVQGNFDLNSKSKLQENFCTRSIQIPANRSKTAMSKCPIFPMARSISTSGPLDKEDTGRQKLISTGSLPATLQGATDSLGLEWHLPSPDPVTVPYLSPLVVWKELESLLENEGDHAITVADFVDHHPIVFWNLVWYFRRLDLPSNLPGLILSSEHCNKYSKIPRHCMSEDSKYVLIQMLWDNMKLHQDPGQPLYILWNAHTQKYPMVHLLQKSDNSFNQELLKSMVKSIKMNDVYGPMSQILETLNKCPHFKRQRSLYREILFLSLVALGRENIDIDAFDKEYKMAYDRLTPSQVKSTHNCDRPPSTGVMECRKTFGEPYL", "UniProt O00115": "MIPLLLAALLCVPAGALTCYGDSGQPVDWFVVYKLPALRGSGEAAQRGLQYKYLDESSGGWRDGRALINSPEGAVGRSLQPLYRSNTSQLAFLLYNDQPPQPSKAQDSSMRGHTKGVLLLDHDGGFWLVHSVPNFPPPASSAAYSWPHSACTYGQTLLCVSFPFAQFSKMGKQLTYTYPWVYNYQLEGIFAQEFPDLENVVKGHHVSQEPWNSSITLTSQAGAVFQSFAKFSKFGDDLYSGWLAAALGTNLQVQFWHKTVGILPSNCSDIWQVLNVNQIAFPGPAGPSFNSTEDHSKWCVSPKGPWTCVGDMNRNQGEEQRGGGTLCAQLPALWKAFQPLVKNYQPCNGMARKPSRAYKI", "UniProt Q8TB03": "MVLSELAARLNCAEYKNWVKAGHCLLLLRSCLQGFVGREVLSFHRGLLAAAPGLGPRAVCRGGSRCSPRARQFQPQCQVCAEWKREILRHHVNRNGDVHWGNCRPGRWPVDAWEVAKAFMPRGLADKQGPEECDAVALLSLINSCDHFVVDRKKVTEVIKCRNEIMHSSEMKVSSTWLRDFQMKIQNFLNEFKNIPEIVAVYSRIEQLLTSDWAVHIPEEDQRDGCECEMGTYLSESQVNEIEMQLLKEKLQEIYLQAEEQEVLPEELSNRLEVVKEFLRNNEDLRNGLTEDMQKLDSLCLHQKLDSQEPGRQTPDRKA", "UniProt Q5VYK3, whole entry": "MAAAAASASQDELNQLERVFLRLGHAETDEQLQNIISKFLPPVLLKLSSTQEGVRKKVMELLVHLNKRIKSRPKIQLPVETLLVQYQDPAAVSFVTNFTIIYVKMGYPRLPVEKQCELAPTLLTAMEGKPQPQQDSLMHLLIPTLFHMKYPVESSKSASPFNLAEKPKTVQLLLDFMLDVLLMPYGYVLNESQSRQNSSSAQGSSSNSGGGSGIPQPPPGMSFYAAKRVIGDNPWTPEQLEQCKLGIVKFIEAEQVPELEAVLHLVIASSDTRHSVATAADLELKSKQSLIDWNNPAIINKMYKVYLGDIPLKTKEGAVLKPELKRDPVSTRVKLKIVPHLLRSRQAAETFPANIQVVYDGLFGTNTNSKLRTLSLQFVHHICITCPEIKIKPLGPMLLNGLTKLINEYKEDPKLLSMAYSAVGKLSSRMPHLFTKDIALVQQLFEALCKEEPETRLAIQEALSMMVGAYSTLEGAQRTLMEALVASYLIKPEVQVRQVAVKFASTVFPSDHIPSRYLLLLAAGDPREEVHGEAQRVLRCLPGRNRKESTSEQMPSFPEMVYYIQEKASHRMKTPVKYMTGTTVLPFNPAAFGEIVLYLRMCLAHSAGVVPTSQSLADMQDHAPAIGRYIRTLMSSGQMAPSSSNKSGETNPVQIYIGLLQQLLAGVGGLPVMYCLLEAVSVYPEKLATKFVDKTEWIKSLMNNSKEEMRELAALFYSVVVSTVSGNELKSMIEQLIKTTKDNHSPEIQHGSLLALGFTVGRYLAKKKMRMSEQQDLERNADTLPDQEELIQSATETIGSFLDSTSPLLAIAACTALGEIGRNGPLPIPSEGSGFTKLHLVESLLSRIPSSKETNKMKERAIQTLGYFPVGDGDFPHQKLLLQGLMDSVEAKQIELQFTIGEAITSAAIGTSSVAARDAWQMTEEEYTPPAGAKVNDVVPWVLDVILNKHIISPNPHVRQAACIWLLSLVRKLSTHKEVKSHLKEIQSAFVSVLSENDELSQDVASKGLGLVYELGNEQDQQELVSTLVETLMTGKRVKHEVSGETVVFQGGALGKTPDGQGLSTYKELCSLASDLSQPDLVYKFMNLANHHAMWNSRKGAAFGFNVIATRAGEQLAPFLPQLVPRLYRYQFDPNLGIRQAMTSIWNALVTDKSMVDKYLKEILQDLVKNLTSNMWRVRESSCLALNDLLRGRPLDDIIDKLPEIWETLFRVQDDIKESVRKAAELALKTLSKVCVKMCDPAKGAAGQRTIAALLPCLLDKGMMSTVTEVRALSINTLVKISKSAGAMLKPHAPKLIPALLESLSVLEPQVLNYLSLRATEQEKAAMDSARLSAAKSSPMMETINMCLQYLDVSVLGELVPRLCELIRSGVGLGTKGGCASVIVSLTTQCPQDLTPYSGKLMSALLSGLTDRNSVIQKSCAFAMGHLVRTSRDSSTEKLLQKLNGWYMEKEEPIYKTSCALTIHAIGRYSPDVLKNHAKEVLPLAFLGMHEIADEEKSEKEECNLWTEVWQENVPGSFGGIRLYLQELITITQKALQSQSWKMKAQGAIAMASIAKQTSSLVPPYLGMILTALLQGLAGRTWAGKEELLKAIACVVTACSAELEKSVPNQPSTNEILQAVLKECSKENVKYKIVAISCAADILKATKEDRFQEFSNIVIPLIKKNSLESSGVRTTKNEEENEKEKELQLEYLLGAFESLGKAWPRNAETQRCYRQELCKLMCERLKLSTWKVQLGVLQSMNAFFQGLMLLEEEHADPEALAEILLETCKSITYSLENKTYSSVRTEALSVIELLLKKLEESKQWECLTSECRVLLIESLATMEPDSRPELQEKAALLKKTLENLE", "UniProt Q9BTZ2": "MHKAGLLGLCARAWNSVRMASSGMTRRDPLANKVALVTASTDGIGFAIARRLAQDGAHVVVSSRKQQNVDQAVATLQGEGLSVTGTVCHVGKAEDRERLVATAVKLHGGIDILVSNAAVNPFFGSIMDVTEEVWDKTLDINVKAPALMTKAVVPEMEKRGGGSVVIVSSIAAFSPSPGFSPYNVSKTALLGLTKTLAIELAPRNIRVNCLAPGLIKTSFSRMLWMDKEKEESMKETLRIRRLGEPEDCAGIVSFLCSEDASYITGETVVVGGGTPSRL", "UniProt O43310": "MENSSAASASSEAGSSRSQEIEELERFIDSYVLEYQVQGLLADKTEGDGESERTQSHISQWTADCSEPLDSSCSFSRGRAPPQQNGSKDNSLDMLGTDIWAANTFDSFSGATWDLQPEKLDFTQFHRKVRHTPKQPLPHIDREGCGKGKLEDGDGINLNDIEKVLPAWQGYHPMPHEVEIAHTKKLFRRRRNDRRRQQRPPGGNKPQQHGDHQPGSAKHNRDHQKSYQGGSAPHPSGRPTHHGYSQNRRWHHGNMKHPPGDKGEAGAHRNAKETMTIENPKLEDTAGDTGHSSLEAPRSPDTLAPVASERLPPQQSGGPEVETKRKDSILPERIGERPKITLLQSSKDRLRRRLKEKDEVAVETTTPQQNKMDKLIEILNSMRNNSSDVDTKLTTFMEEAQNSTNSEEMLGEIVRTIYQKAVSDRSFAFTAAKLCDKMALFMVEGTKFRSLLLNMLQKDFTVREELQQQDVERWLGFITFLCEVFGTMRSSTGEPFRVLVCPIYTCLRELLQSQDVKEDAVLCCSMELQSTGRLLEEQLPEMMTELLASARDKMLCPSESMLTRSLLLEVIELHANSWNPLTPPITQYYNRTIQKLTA", "UniProt P63167, whole entry": "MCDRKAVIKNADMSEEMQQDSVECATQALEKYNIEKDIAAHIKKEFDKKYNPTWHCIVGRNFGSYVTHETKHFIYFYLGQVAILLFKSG", "UniProt Q13574": "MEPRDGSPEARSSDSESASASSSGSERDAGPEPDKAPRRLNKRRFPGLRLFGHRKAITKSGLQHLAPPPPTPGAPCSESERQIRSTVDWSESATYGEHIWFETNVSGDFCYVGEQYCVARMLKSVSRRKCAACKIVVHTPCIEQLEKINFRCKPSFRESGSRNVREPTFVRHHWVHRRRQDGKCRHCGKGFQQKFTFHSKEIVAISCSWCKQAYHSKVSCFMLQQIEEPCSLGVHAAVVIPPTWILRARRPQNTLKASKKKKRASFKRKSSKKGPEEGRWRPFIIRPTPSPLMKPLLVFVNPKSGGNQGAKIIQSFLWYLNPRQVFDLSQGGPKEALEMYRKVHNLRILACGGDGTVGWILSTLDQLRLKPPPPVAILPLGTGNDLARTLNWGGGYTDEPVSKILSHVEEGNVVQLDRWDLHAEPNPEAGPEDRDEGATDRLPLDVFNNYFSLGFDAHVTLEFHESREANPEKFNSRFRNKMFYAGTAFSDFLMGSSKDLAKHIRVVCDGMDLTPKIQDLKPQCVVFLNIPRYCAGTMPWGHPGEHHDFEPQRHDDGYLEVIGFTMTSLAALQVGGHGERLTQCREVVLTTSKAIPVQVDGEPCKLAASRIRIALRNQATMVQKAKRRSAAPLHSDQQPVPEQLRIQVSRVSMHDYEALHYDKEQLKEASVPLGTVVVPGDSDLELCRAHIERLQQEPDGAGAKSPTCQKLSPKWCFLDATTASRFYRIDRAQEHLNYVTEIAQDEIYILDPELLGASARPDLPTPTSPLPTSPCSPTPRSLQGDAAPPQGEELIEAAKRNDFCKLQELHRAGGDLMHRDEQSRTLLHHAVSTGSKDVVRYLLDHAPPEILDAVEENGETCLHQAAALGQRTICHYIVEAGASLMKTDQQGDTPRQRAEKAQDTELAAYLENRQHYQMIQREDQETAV"},
  "source": "the supplement of paper PMC7666118",
  "note": "This is one part of the list.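 How the source made its calls: active = dose-dependent thermal stabilisation significant by F-test of dose-response against flat model at 10% FDR; inactive = not significant.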",
  "data": [
    {"compound": "Nc1nc2c(ncn2[C@@H]2O[C@H](COP(=O)(O)OP(=O)(O)OP(=O)(O)O)[C@@H](O)[C@H]2O)c(=O)[nH]1", "experiment": "dose-dependent thermal stabilisation call (2D-TPP, DLPTP, 10% FDR) (binary (1 = stabilised)); higher = stabilised by the compound", "conditions": "system: Jurkat gel-filtered lysate; concentration range 1-500 µM", "experimental": "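2D thermal proteome profiling in gel-filtered Jurkat E6.1 lysate (2 mg/ml) treated with NaGTP (0, 1, 10, 100, 500 uM) for 10 min at room temperature, then heated 3 min at one of 12 temperatures (42-63.9 C). Soluble protein was quantified by TMT10 MS. The value is the DLPTP call of the paper: dose-dependent thermal stabilisation over all temperatures at 10% FDR (F-test of a dose-response against a flat model); one experiment, one call per tested protein.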", "values": [
      {"target": "DPF2 (UniProt Q92785)", "dose-dependent thermal stabilisation call": "inactive: 0"},
      {"target": "DSCR3 (UniProt O14972)", "dose-dependent thermal stabilisation call": "active: 1"},
      {"target": "CRTC2 (UniProt Q53ET0)", "dose-dependent thermal stabilisation call": "inactive: 0"},
      {"target": "DSG2 (UniProt Q14126)", "dose-dependent thermal stabilisation call": "inactive: 0"},
      {"target": "CRK (UniProt P46108)", "dose-dependent thermal stabilisation call": "inactive: 0"},
      {"target": "DENND4A (UniProt Q7Z401)", "dose-dependent thermal stabilisation call": "inactive: 0"},
      {"target": "EEA1 (UniProt Q15075)", "dose-dependent thermal stabilisation call": "inactive: 0"},
      {"target": "DDX20 (UniProt Q9UHI6)", "dose-dependent thermal stabilisation call": "active: 1"},
      {"target": "CRLF3 (UniProt Q8IUI8)", "dose-dependent thermal stabilisation call": "inactive: 0"},
      {"target": "DDX6 (UniProt P26196)", "dose-dependent thermal stabilisation call": "inactive: 0"},
      {"target": "DNASE2 (UniProt O00115)", "dose-dependent thermal stabilisation call": "inactive: 0"},
      {"target": "CYTH1 (UniProt Q15438)", "dose-dependent thermal stabilisation call": "inactive: 0"},
      {"target": "DMAP1 (UniProt Q9NPF5)", "dose-dependent thermal stabilisation call": "inactive: 0"},
      {"target": "DNAJC7 (UniProt Q99615)", "dose-dependent thermal stabilisation call": "inactive: 0"},
      {"target": "DTD1 (UniProt Q8TEA8)", "dose-dependent thermal stabilisation call": "inactive: 0"},
      {"target": "CXorf38 (UniProt Q8TB03)", "dose-dependent thermal stabilisation call": "inactive: 0"},
      {"target": "ECM29 (UniProt Q5VYK3)", "dose-dependent thermal stabilisation call": "active: 1"},
      {"target": "CWC25 (UniProt Q9NXE8)", "dose-dependent thermal stabilisation call": "inactive: 0"},
      {"target": "CREB1 (UniProt P16220)", "dose-dependent thermal stabilisation call": "inactive: 0"},
      {"target": "DPP7 (UniProt Q9UHL4)", "dose-dependent thermal stabilisation call": "inactive: 0"},
      {"target": "DDB1 (UniProt Q16531)", "dose-dependent thermal stabilisation call": "inactive: 0"},
      {"target": "DHRS4 (UniProt Q9BTZ2)", "dose-dependent thermal stabilisation call": "inactive: 0"},
      {"target": "CTSA (UniProt P10619)", "dose-dependent thermal stabilisation call": "inactive: 0"},
      {"target": "CTIF (UniProt O43310)", "dose-dependent thermal stabilisation call": "inactive: 0"},
      {"target": "CTSC (UniProt P53634)", "dose-dependent thermal stabilisation call": "inactive: 0"},
      {"target": "DYNLL1 (UniProt P63167)", "dose-dependent thermal stabilisation call": "inactive: 0"},
      {"target": "EEF2 (UniProt P13639)", "dose-dependent thermal stabilisation call": "active: 1"},
      {"target": "CUL5 (UniProt Q93034)", "dose-dependent thermal stabilisation call": "inactive: 0"},
      {"target": "CSRP2 (UniProt Q16527)", "dose-dependent thermal stabilisation call": "inactive: 0"},
      {"target": "DAP (UniProt P51397)", "dose-dependent thermal stabilisation call": "inactive: 0"},
      {"target": "ECD (UniProt O95905)", "dose-dependent thermal stabilisation call": "inactive: 0"},
      {"target": "DGKZ (UniProt Q13574)", "dose-dependent thermal stabilisation call": "active: 1"},
      {"target": "DKC1 (UniProt O60832)", "dose-dependent thermal stabilisation call": "inactive: 0"},
      {"target": "EEF1D (UniProt P29692)", "dose-dependent thermal stabilisation call": "inactive: 0"},
      {"target": "DCTN6 (UniProt O00399)", "dose-dependent thermal stabilisation call": "inactive: 0"},
      {"target": "EAPP (UniProt Q56P03)", "dose-dependent thermal stabilisation call": "inactive: 0"},
      {"target": "DLG1 (UniProt Q12959)", "dose-dependent thermal stabilisation call": "inactive: 0"},
      {"target": "DEF6 (UniProt Q9H4E7)", "dose-dependent thermal stabilisation call": "inactive: 0"},
      {"target": "DCP1B (UniProt Q8IZD4)", "dose-dependent thermal stabilisation call": "inactive: 0"},
      {"target": "DNAJB11 (UniProt Q9UBS4)", "dose-dependent thermal stabilisation call": "inactive: 0"}
    ]}
  ]
}
